# Where “and” joins values, the source holds several entries; their conditions need not be identical. Equal entries are not always repeated. In all, about 320,000 compounds went through this assay and about 22,000 (6.9%) were called active. Inconclusive means that the source gave no clear call. Such entries were picked first, then a sample of the others. The call rests on the fitted dose curve; in most records, active means well fitted inhibition curve with a large enough effect; inconclusive means small, poorly fitted or top-dose-only effect, or another doubt; inactive means no such curve, though single readings can be large or run the other way. Potencies beside an inconclusive call are fits to weak or partial responses and may not hold up. More than one record can exist for a structure, and the calls need not agree.
# Assay: Primary qHTS for delayed death inhibitors of the malarial parasite plastid, 96 hour incubation
# Conditions: P. falciparum luciferase reporter growth; series mostly up to 28.7 µM; activity change, negative = inhibition: at the top concentration
# Outline: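 P. falciparum expressing integrated firefly luciferase, in erythrocytes at 2% hematocrit, 0.05% parasitemia, incubated with compounds 96 h at 37 C, 5% CO2. Growth inhibition read as loss of luminescence; two-generation exposure targets delayed-death apicoplast inhibitors.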
# On the % scale 0 is the no-effect control and ±100 the full control effect; potency means the concentration at half of the fitted maximal effect.
SMILES,Potency,"activity change, negative = inhibition"
COc1ccc(C(=O)C2CCN(C(=O)Nc3ccccc3C)CC2)cc1,"inconclusive: 7.38 µM [inhibitor, partial curve]",–
COCCNS(=O)(=O)c1ccc2c(c1)C(=NO)c1cc(S(=O)(=O)NCCOC)ccc1-2,"inconclusive: 3.29 µM [inhibitor, partial curve]",–
O=C1CCC(c2ccccc2)(C2CCN(Cc3ccccc3)CC2)C(=O)N1 (centres undefined),"inconclusive: 2.69 µM [inhibitor, partial curve, poor fit]",–
Cc1ccc(S(=O)(=O)N2c3cc(C)ccc3OCC2C(C)(C)C)cc1 (centres undefined),"inconclusive: 11.7 µM [inhibitor, single point]",–
CN1c2ccsc2C(=O)/C(=C\Nc2cccc(C(F)(F)F)c2)S1(=O)=O,–,inactive: 13.7%
Cc1ccc(S(=O)(=O)N(CC(=O)N=Nc2c(O)[nH]c3ccccc23)c2cccc(C)c2)cc1,"inconclusive: 18.5 µM [inhibitor, single point]",–
N=c1n(CC(=O)c2cccs2)c2ccccc2n1Cc1ccccc1,active: 4.65 µM,–
Cc1ccc(C(=O)NCc2n[nH]c(=S)n2-c2ccccc2)cc1[N+](=O)[O-],"inconclusive: 1.47 µM [inhibitor, full curve, poor fit]",–
O=C(CSc1ncn[nH]1)NCc1ccccc1Cl,–,inactive: 21.1%
O=C(/C=C/c1ccccc1O)c1ccco1,–,inactive: 13.3%
Nc1n[nH]c(N)c1N=Nc1ccc2c(c1)OCO2,–,inactive: 35%
Cc1ccccc1C(=O)NC1CCN(Cc2nnnn2CCc2ccccc2)CC1,"inconclusive: 0.0033 µM [inhibitor, full curve, poor fit]",–
Cc1cccc(C(=O)NNC(=O)c2ccccc2[N+](=O)[O-])c1,"inconclusive: 10.4 µM [inhibitor, single point]",–
O=C(NC1CCCN(c2ccc(C(F)(F)F)cn2)C1)c1ccnc(Cl)c1 (centres undefined),"inconclusive: 0.0117 µM [inhibitor, full curve, poor fit]",–
CCCC(C)c1nc(C(N)=O)c2[nH]c(=O)n(-c3ccc(OC)c(OC)c3)c2n1 (centres undefined),–,inactive: -18.5%
COc1ccc(C(=O)Nc2ccncc2)c(OC)c1,"inconclusive: 2.08 µM [inhibitor, full curve, poor fit]",–
Cn1c(N2C(=O)CC(Cc3ccccc3)C2=O)nc2ccccc21 (centres undefined),active: 1.65 µM,–
COc1cc(C(=O)NCCCNc2ccc([N+](=O)[O-])cc2)cc(OC)c1OC,"inconclusive: 16.5 µM [inhibitor, single point]",–
COc1ccc(C(C(=O)NC2CCCCC2)N(C(=O)c2csnn2)C2CC2)cc1 (centres undefined),"inconclusive: 8.28 µM [inhibitor, partial curve]",–
O=C(Nc1cc(S(=O)(=O)N2CCCCC2)ccc1N1CCOCC1)c1cc(=O)[nH]c2ccccc12,active: 8.28 µM,–
OC1(c2ccccc2)CCN(Cc2ccccc2)CC1,"inconclusive: 18.5 µM [inhibitor, single point]",–
Cc1c(C(=O)NC(C)c2ccccc2)c(-c2ccccc2)nn1-c1ccccc1 (centres undefined),"inconclusive: 4.65 µM [inhibitor, partial curve, poor fit]",–
O=C(COc1ccc([N+](=O)[O-])cc1)NNC(=O)Nc1cccc(F)c1,–,inactive: 2.93%

SMILES,Potency,"activity change, negative = inhibition"
CC(=O)N1c2ccc(S(=O)(=O)N3CCC(C(=O)NCCc4ccc(Cl)cc4)CC3)cc2CC1C (centres undefined),–,inactive: 6.27%
CN(C(=O)CSc1nc2c(cnn2-c2ccccc2)c(=O)[nH]1)C1CCS(=O)(=O)C1 (centres undefined),"inconclusive: 18.5 µM [inhibitor, partial curve, poor fit]",–
O=C(CSc1ccccc1C(=O)NCc1ccccc1)NC1CCCCCCC1,"inconclusive: 18.5 µM [inhibitor, single point]",–
Cc1cccc(-n2c(Cc3cc(=O)[nH]c(=O)[nH]3)nnc2SCC(=O)N2CCCCC2)c1,"inconclusive: 18.5 µM [inhibitor, single point]",–
COc1ccc(NC(=O)c2c(-c3ccccc3Cl)noc2C)c(OC)c1,–,inactive: -0.269%
Cc1[nH]c2ccc(F)cc2c1CCN(Cc1ccco1)C(=S)NC(C)(C)C,"inconclusive: 1.04 µM [inhibitor, partial curve, poor fit]",–
CCOc1ccc(N2C(=O)C3C4C=CC([C@H]5CC45)[C@@H]3C2=O)cc1 (some centres undefined),–,inactive: 34%
O=C(OCCN1CCCCC1)c1ccccc1F,"inconclusive: 1.47 µM [inhibitor, partial curve]",–
CC(C)CCP(=O)(O)c1ccccc1,"inconclusive: 9.28 µM [inhibitor, partial curve, poor fit]",–
CC1CN(C(=O)c2ccccc2Nc2ccc(SC(F)F)cc2)CC(C)O1 (centres undefined),"inconclusive: 7.38 µM [inhibitor, partial curve, poor fit]",–
COc1ccc(NS(=O)(=O)c2cc(N)ccc2N2CCCCC2)cc1,"inconclusive: 14.7 µM [inhibitor, single point]",–
CCOc1ccc(NS(=O)(=O)c2ccc(-c3ccc(=O)[nH]n3)o2)cc1,–,inactive: 39.9%
Cc1ccc(-c2[nH]ncc2C(=O)c2ccccc2C)c(O)c1,"inconclusive: 9.28 µM [inhibitor, single point]",–
Cc1cc(NC(=O)COC(=O)C2CC(=O)N(c3ccc(Cl)cc3)C2)no1 (centres undefined),–,inactive: 5.57%
CC(O)CNCCCCOc1ccc(OCc2ccccc2)cc1 (centres undefined),"inconclusive: 18.5 µM [inhibitor, single point]",–
O=C(OCn1ncc(Cl)c(Cl)c1=O)c1ccc(F)cc1,"inconclusive: 4.15 µM [inhibitor, single point]",–
O=C(COC(=O)c1cccnc1Cl)c1ccc(OC(F)F)cc1,–,inactive: 25.9%
CC(C)(C)n1nnnc1C(c1cccs1)N(Cc1cccnc1)CC1CCCO1 (centres undefined),"inconclusive: 16.5 µM [inhibitor, partial curve, poor fit]",–
O=C(CSC1=NS(=O)(=O)c2ccccc2N1)Nc1cccc(F)c1,–,inactive: 6.24%
COC(=O)c1ccccc1NC(=O)CSc1nnnn1-c1ccc(C)cc1C,"inconclusive: 13.1 µM [inhibitor, single point]",–
O=C(c1ccco1)N1CCCN(Cc2cn[nH]c2-c2ccc(-c3ccccc3)cc2)CC1,"inconclusive: 5.86 µM [inhibitor, partial curve, poor fit]",–
O=C(c1nc2ccccn2c1CN1CCN(c2ccccc2O)CC1)N1CCCC1,"inconclusive: 10.4 µM [inhibitor, single point]",–
O=C(C1CCCN(S(=O)(=O)c2cccc3nonc23)C1)N1CCN(c2ccccc2Cl)CC1 (centres undefined),active: 11.7 µM,–

# Record cards (already shown). Order of values: Potency | activity change, negative = inhibition
# `CC(=O)N1c2ccc(S(=O)(=O)N3CCC(C(=O)NCCc4ccc(Cl)cc4)CC3)cc2CC1C` (centres undefined) reads – | inactive: 6.27%
# `COC(=O)c1ccccc1NC(=O)CSc1nnnn1-c1ccc(C)cc1C` reads inconclusive: 13.1 µM [inhibitor, single point] | –
# `CC(O)CNCCCCOc1ccc(OCc2ccccc2)cc1` (centres undefined) reads inconclusive: 18.5 µM [inhibitor, single point] | –
# `O=C(c1ccco1)N1CCCN(Cc2cn[nH]c2-c2ccc(-c3ccccc3)cc2)CC1` reads inconclusive: 5.86 µM [inhibitor, partial curve, poor fit] | –

# Remaining list, next part

SMILES,Potency,"activity change, negative = inhibition"
O=C1CCCN1CCCNc1ccc2nnc(CCC(=O)N3CCN(c4ccccc4)CC3)n2n1,–,inactive: 72.2%
Fc1ccccc1/C=N/n1c(-c2cccnc2)n[nH]c1=S,"inconclusive: 11.7 µM [inhibitor, partial curve, poor fit]",–
O=S(=O)(Nc1nc2ccccc2nc1Nc1ccc(N2CCOCC2)cc1)c1cc(Cl)ccc1Cl,–,inactive: 16.7%
CCCc1c(C)nc2ccccc2c1SCCC#N,"inconclusive: 14.7 µM [inhibitor, partial curve, poor fit]",–
Cc1cccc(C)c1NC(=O)CNC(=O)c1ccc(N2CCCC2=O)cc1,–,inactive: 38.1%
Cc1ccc(C)c(NC(=O)C(Sc2nncn2C)c2ccccc2)c1 (centres undefined),"inconclusive: 18.5 µM [inhibitor, single point]",–
CCCCn1c(N)c(N(CC(C)C)C(=O)C2CCN(C(=O)c3ccc(Cl)cc3)CC2)c(=O)[nH]c1=O,–,inactive: 6.16%
CCCC[N+]1(C)C2CC(OC(=O)C(CO)c3ccccc3)CC1C1OC12 (centres undefined),inactive and active: 1.2 µM,–
Cc1nc(NC(=O)CSC2=NCCS2)sc1C(=O)N(C)C,"inconclusive: 4.15 µM [inhibitor, partial curve, poor fit]",–
O=C(COc1ccccc1)Nc1ccc(-c2ccc(N3CCOCC3)nn2)cc1,"inconclusive: 11.7 µM [inhibitor, partial curve]",–
COc1ccc(NS(=O)(=O)c2ccc3c(c2)CCC(=O)N3)c(OC)c1,"inconclusive: 0.738 µM [inhibitor, full curve]",–
C=CCc1cc(OC)ccc1OCCCCn1cncn1,"inconclusive: 8.28 µM [inhibitor, partial curve]",–
c1ccc(OCc2nn3c(-c4ccccn4)nnc3s2)cc1,"inconclusive: 18.5 µM [inhibitor, single point]",–
NC(=O)N/N=C/c1cccc(C(F)(F)F)c1,–,inactive: 41.5%
COc1ccc(CCN(C)C2CCCN(S(=O)(=O)c3ccc(C)cc3)C2)cc1OC (centres undefined),"inconclusive: 18.5 µM [inhibitor, single point]",–
O=C(CSc1ccsc1[N+](=O)[O-])Nc1cc(F)ccc1F,–,inactive: 31%
O=C(CCSCCC(=O)N1CCCC1)N1CCCC1,–,inactive: -2.74%
CC(=O)Nc1ccc(S(=O)(=O)N(C)CC(=O)N/N=C/c2ccc(C(=O)O)cc2)cc1,"inconclusive: 0.0738 µM [inhibitor, full curve, poor fit]",–
CC(=O)c1ccc(NC(=O)C[n+]2cccc(C)c2)cc1,"inconclusive: 0.0029 µM [inhibitor, full curve, poor fit]",–
CCOC(=O)c1c(NC(=O)COc2ccccc2F)sc2c1CC(C)(C)NC2(C)C,"inconclusive: 1.31 µM [inhibitor, partial curve, poor fit]",–
COc1cccc(CNC(=O)CCCC(=O)NC(C)CCc2ccccc2)c1 (centres undefined),"inconclusive: 18.5 µM [inhibitor, single point]",–
CCN(CC)c1ccc(-n2c(C)c(C(C)=O)c(C(C)=O)c2C)cc1,"inconclusive: 10.4 µM [inhibitor, single point]",–
O=C(CCc1nnc(-c2ccsc2)o1)NCc1ccccc1OC(F)(F)F,"inconclusive: 10.4 µM [inhibitor, single point]",–
